Assay results: PMC8999035
No constants are given. Whether binding was seen depends on the method and setting. Some results given as binding are weak or reduced against the parent protein; the word gives no strength.

Molecular target: Rat TRPV2 full-length (FL), C-terminal GFP and 8xHis tag (rat) (UniProt Q9WUD2)
Experiment: far-Western, overlay or dot blot; slot blot: purified FL rat TRPV2 or ARD placed on nitrocellulose membranes, blocked with 2% BSA in 0.1 M PBS pH 7.4, incubated with rat brain lysate (1 ug/mL in blocking buffer, 1 h, RT; the legend says 0-10 ug of lysate), washed in TBS + 0.1% Tween, immunoblot against Opalin, NTM and PLP1; only the target purified

B1: Proteolipid protein 1 (protein, UniProt P60203 1-277)
chain: MGLLECCARCLVGAPFASLVATGLCFFGVALFCGCGHEALTGTEKLIETYFSKNYQDYEYLINVIHAFQYVIYGTASFFFLYGALLLAEGFYTTGAVRQIFGDYKTTICGKGLSATVTGGQKGRGSRGQHQAHSLERVCHCLGKWLGHPDKFVGITYALTVVWLLVFACSAVPVYIYFNTWTTCQSIAFPSKTSASIGSLCADARMYGVLPWNAFPGKVCGSNLLSICKTAEFQMTFHLFIAAFVGAAATLVSLLTFMIAATYNFAVLKLMGRGTKF
binding: binds
